Test [1] addresses T1, Mitofilin/MIC60 (human (endogenous in fibroblasts)) (UniProt Q16891).
T1 sequence: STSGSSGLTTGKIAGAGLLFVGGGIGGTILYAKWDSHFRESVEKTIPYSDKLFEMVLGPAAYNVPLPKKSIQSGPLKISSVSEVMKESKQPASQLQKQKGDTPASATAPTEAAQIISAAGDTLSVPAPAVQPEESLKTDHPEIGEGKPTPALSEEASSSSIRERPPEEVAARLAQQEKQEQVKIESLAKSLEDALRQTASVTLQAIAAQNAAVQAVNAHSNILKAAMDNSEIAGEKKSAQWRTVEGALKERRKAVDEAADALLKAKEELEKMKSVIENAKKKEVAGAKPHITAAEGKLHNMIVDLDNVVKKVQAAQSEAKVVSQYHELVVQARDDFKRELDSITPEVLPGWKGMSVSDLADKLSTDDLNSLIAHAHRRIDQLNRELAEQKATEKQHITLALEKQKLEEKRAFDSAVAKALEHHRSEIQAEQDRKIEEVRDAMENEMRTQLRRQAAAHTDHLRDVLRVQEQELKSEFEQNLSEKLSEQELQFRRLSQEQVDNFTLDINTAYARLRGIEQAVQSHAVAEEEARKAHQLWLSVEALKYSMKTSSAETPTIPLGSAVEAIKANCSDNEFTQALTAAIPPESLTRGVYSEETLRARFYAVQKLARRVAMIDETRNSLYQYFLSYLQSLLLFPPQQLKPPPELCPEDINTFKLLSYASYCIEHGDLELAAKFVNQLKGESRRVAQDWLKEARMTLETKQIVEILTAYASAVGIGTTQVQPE
Nature of the test: co-IP.

Test [2] addresses T1, Mitofilin/MIC60 (human (endogenous in fibroblasts)). Nature of the test: proximity ligation.

In publication doi:10.1101/2021.05.31.446377 one finds binding data, which are given here for one substance.

No constants are given. Whether binding was seen depends on the method and setting. Binding seen in cells or lysates may run through a third protein. Binding can be weak; no strength is given.

Regarding “OPA1 (Optic Atrophy type 1) (human (endogenous in fibroblasts))”, the binding entry in test [1] and in test [2] was “binds” throughout.
